Measured values: doi:10.1101/2025.01.10.632391
Results are given in words; binding and its absence hold for the method and conditions named.

Target: T1, angiopoietin-like 6 (ANGPTL6) (UniProt Q8NI99)
T1 sequence: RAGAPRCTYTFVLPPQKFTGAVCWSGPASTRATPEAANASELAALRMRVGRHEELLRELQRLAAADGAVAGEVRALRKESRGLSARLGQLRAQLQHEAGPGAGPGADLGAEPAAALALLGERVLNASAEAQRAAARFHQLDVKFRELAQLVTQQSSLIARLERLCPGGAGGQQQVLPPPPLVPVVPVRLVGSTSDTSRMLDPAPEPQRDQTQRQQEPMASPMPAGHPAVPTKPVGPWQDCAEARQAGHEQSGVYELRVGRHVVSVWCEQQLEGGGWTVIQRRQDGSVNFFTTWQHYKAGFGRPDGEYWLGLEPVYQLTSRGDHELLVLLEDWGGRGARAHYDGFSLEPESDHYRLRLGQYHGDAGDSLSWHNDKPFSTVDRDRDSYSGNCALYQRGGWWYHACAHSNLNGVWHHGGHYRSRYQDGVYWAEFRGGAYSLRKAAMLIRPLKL
Experiment: SPR

## fibronectin
  binding: no binding (tested: up to 1000 nM)
